# Source: PubChem BioAssay AID493014 (National Center for Advancing Translational Sciences (NCATS), 2011)
# Values joined by “and” are separate entries in the source; they are usually repeats but may differ in a detail not shown here. Equal entries are not always repeated. Some of the results follow. Further columns of the screen follow, without active or inactive calls. Most of these compounds were active or inconclusive in the main read-out, so they are no random draw. Words in brackets tell the shape of the fitted curve; partial curves, single points and poor fits give uncertain potencies.
# Experiment: qHTS Assay to Find Inhibitors of Chronic Active B-Cell Receptor Signaling
# Conditions: ABC-DLBCL IkBa-CBG/CBR reporter, luminescence ratio (green luciferase fused to IkBa over red control in TMD8 lymphoma cells), 4 h
# Summary of the method: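 Doxycycline induced both beetle luciferases in TMD8 lymphoma cells; IKK-driven degradation limits the IkappaBalpha-fused green signal, while red luminescence normalises for cell number and nonspecific effects. Compounds tested up to 46 uM, 4 hrs.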
# [1] = measured here: CBR red luminescence, cell number
# [2] = measured here: IkBa-CBG green luminescence
SMILES,AC50 [1],AC50 [2]
CCCCC(=O)NC(c1ccco1)c1c(O)ccc2ccccc12 (stereo unspecified),"17.8 µM [falling, partial curve, poor fit]",
CCCCCCCC(=O)N/N=C/c1cccnc1,"0.731 µM [falling, partial curve, poor fit]",
O=C(COC(=O)CCOc1ccccc1)Nc1cc(S(=O)(=O)N2CCCCC2)ccc1Cl,"20.6 µM [falling, single point]",
O=C(CSc1cccc2cccnc12)N/N=C/c1cccnc1,"35.5 µM [falling, single point]",
Cc1oc(C(=O)O)cc1COc1ccc2c3c(c(=O)oc2c1)CCC3,"9.2 µM [falling, partial curve, poor fit]",
COc1ccc(NC(=O)c2cccc(S(=O)(=O)Nc3ccc(Br)cc3)c2)cn1,"3.66 µM [falling, full curve]",
CC(=O)c1cc2c(cc1N/C(=N/S(=O)(=O)c1ccccc1)c1ccc(Cl)cc1)OCO2,"4.11 µM [rising, full curve, poor fit]",
O=C(Nc1cccc(-c2nc3ncccc3o2)c1)c1cc2ccccc2o1,"18.4 µM [falling, single point]",
O=c1cc(-c2ccccc2)nc2nc(-c3ccco3)[nH]n12,"2.06 µM [falling, full curve]",
Cc1ccccc1OCCC(=O)OCC(=O)N1c2ccccc2NC(=O)C1(C)C,"29.1 µM [falling, single point]",
O=C(NCCc1c[nH]c2ccccc12)OCCCCOC(=O)NCCc1c[nH]c2ccccc12,"18.4 µM [falling, single point]",
CCOc1ccccc1NC(=O)COC(=O)C1CC(=O)N(c2c(C)cccc2C)C1 (stereo unspecified),"11.2 µM [falling, partial curve, poor fit]",
CCOC(=O)c1ccc(S(=O)(=O)N2CCN(CC(=O)NC(=O)NC3CCCCC3)CC2)cc1,"0.501 µM [falling, full curve, poor fit]",
Cc1cc(C(=O)OCC(=O)c2cccc([N+](=O)[O-])c2)c2ccccc2n1,"16.4 µM [falling, partial curve, poor fit]",
COCCn1c(-c2ccc(OC)cc2)cnc1SCC(=O)Nc1cccc2ccccc12,"29.1 µM [falling, single point]",
O=C(N/N=C/c1ccncc1)c1cccc(NC(=O)c2ccccc2Cl)c1,"5.8 µM [falling, full curve]",
CCOC(=O)c1c(CN2CCCCC2)oc2ccc(OC)cc12,"17.8 µM [rising, single point]",
COc1cc(C(=O)N2CCN(Cc3ccccc3C(F)(F)F)CC2)cc(OC)c1OC,"3.55 µM [rising, single point]",
O=C(CSC1=NS(=O)(=O)c2cc(F)ccc2N1)Nc1cccc(F)c1,"23.1 µM [falling, partial curve, poor fit]",
CC(Oc1ccc(F)cc1)C(=O)N(Cc1ccccc1)c1c(N)n(Cc2ccccc2)c(=O)[nH]c1=O (stereo unspecified),"29.1 µM [falling, single point]",
Cc1cc(C(=O)CN2C(=O)c3ccccc3C2=O)c(C)n1C1CC1,"8.91 µM [falling, full curve, poor fit]",

SMILES,AC50 [1],AC50 [2]
COc1cc(CCC(=O)Nc2ccc(S(=O)(=O)N3CCOCC3)cc2)cc(OC)c1OC,"23.1 µM [rising, single point]",
O=C(CCCN1C(=O)/C(=C/c2ccccc2)SC1=S)Nc1ccc(C(=O)O)c(O)c1,"11.2 µM [falling, partial curve, poor fit]",
CN(C)c1nc(Oc2ccc(N)cc2)nc(N(C)C)n1,"29.1 µM [rising, single point]",
O=C(c1ccc(S(=O)(=O)N2CCCCCC2)cc1)N1CCN(Cc2ccccc2)CC1,"3.66 µM [rising, partial curve, poor fit]",
O=C(CN1C(=O)S/C(=C\C=C\c2ccccc2)C1=O)Nc1ccc(O)cc1,"20.6 µM [falling, single point]","20.6 µM [falling, single point]"
Cc1ccccc1-c1noc(-c2ccccc2C(=O)O)n1,"12.6 µM [falling, partial curve, poor fit]",
O=C(O/N=C1/CCSc2ccccc21)c1ccc(F)cc1,"3.55 µM [falling, partial curve, poor fit]",
O=C(CSc1nnc(SCc2cccc3ccccc23)s1)Nc1ccc(C(=O)O)cc1,"12.6 µM [falling, partial curve, poor fit]",
Cc1ccc(NC2CCCN(C(=O)c3cn(C)c4ccccc34)C2)cc1C (stereo unspecified),"2.51 µM [rising, partial curve, poor fit]",
CCCCSc1nnc2c(n1)OC(C(=O)c1ccccc1)Nc1ccccc1-2 (stereo unspecified),"14.6 µM [falling, single point]",
COc1cc(C(=O)Nc2nc(C)c(Cc3ccc4c(c3)OCO4)s2)cc(OC)c1OC,,"6.51 µM [falling, partial curve]"
CC(C)c1nc(-c2ccc([N+](=O)[O-])cc2)cs1,"16.4 µM [rising, partial curve]",
Cn1c(SCC(=O)NCC2CCCO2)nnc1-c1ccco1 (stereo unspecified),"0.82 µM [rising, full curve, poor fit]",
Cc1ccccc1CN1C(=O)C(O)(CC(=O)c2ccccc2)c2cc(Cl)ccc21 (stereo unspecified),"35.5 µM [falling, single point]",
CCOc1ccc(N2C(=O)C(c3ccccc3)=C(c3nc4ccccc4s3)C2NC(C)=O)cc1 (stereo unspecified),"13 µM [falling, partial curve]",
Cc1ccccc1OCc1n(CC(=O)OC2CC(C)CCC2C(C)C)c2ccccc2[n+]1C (stereo unspecified),"10 µM [falling, partial curve, poor fit] and 35.5 µM [falling, single point]","35.5 µM [rising, partial curve, poor fit]"
COc1cc2nc(Nc3ccc(C)c(Cl)c3)nc(N)c2cc1OC,"3.55 µM [falling, full curve, poor fit]",
NC(=O)CSc1ncnc2c1oc1ccccc12,"1.64 µM [rising, partial curve, poor fit]",
COc1cc(C(=O)NCC(=O)OCC(=O)c2ccc[nH]2)cc(OC)c1OC,"8.2 µM [rising, partial curve, poor fit]",
COc1ccc(-n2nc3c(c2NC(=O)c2ccc(S(=O)(=O)N4CCOCC4)cc2)CS(=O)C3)cc1 (stereo unspecified),"35.5 µM [falling, partial curve, poor fit]",
CC(=O)Nc1ccc(-c2csc(Nc3ccccn3)n2)cc1,"12.6 µM [falling, partial curve]",

# 3 of the compounds above, bar-delimited.
SMILES | AC50 [1] | AC50 [2]
O=C(CCCN1C(=O)/C(=C/c2ccccc2)SC1=S)Nc1ccc(C(=O)O)c(O)c1 | 11.2 µM [falling, partial curve, poor fit] | 
O=C(CSc1nnc(SCc2cccc3ccccc23)s1)Nc1ccc(C(=O)O)cc1 | 12.6 µM [falling, partial curve, poor fit] | 
NC(=O)CSc1ncnc2c1oc1ccccc12 | 1.64 µM [rising, partial curve, poor fit] | 

# Following part

SMILES,AC50 [1],AC50 [2]
Cc1nc(NC(=O)c2ccco2)sc1C(=O)Nc1ccc(Br)cc1,"0.631 µM [falling, full curve, poor fit]",
Cc1ccc(-c2nc3c(c(=O)[nH]c(=O)n3Cc3ccccc3)n2Cc2ccccc2)o1,"35.5 µM [falling, single point]",
O=C(CCCN1C(=O)c2ccccc2C1=O)N1CCC(c2ccccc2)C1 (stereo unspecified),"6.51 µM [rising, single point]",
CCOc1cc(C#N)c(NC(=O)c2cccnc2)cc1OCC,"20 µM [rising, single point]","12.6 µM [falling, single point]"
O=C(O)CSc1nnc(SCc2cccc3ccccc23)s1,"13 µM [falling, partial curve, poor fit]",
CCn1c(SCC(=O)Nc2nc3c(s2)CCCC3)nnc1-c1ccccc1,"11.2 µM [falling, partial curve, poor fit]",
COc1cc(Cl)c(C)cc1NC(=O)CN(C)Cc1cccc(OC)c1OC,"35.5 µM [falling, single point]","7.08 µM [rising, full curve, poor fit]"
CC(C)(O)c1cc(=O)sc2nc3ccccc3n12,"1.46 µM [rising, partial curve, poor fit]",
COCCCNC(=O)c1c(N)n(-c2ccc3c(c2)OCO3)c2nc3ccccc3nc12,"0.708 µM [falling, partial curve, poor fit]",
CC(C)(C)c1nc(SCC(=O)c2ccccc2)c2ccccc2n1,"1.78 µM [falling, full curve]",
Cn1c(SCc2ccc(C#N)cc2)nnc1-c1ccncc1,"35.5 µM [rising, single point]",
O=C(CN1CCCCCC1)Nc1ccc(F)c(F)c1F,"10.3 µM [falling, partial curve]",
CC(C)c1cc(C(=O)Nc2cccc(C(F)(F)F)c2)no1,"5.8 µM [rising, partial curve]",
COc1ccc(C(C)=O)cc1CSc1nc2ccccc2c(=O)n1-c1ccccc1,"0.164 µM [rising, full curve]",
Cc1ccc(S[C@@H](CCN2CC[C@H](C)CCC2=O)c2ccccc2)cc1,,"12.6 µM [rising, partial curve, poor fit]"
Cc1nc2c(o1)CCc1ccccc1C2N1CCN(C)CC1 (stereo unspecified),"35.5 µM [falling, single point]",
CCc1ccc(/C(C)=N/NC(=O)c2ccccn2)cc1,"35.5 µM [falling, single point]",
COc1ccc(CCNC(=O)CCC(=O)N2CCOc3ccc(C)cc32)cc1OC,"2 µM [rising, single point]",
Cc1nc2cc3c(cc2c(C)c1C(=O)OC(C)C)OCO3,"1.46 µM [falling, full curve, poor fit]","3.26 µM [rising, full curve, poor fit]"
